Values of other authors as cited in patent US8673268B2, “Molecular targets and compounds, and methods to identify the same, useful in the treatment of joint degenerative and inflammatory diseases” (Galapagos N.V., priority 2004, dated 2014).
At least one compound was matched to its structure with a doubt left.

System: collagen-induced arthritis
Conditions: rodents (Yang et al., 2004); cited from earlier work

Q: Which “effect on collagen-induced arthritis” value does the source give for `C[C@@H]1C[C@H]2[C@@H]3CCC4=CC(=O)C=C[C@]4(C)[C@@]3(F)[C@@H](O)C[C@]2(C)[C@@]1(O)C(=O)CO` [dexamethasone] here?
A: The value was “strongly reduces”.
